# Data published in the supplement of paper PMC10338343.
# ± gives the standard deviation. The list shows a part of the results, in another mix than the full data. Many entries were measured with a wide error.
# Test system: MIWI (PIWIL1) piRISC loaded with piRNA #2 (30 nt)
# Assay: pre-steady-state target cleavage rate (min^-1); MIWI and MILI are mouse PIWI proteins and EfPiwi is from a freshwater sponge; tags in brackets are library labels; higher = faster piRNA-guided slicing of the target
# Settings: guide: piRNA #2 5'p-UUAGGUAACCCAGUAGAUCCAGAGGAAUUC; auxiliary factor: 500 nM mouse GTSF1
# How it was run: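 Three pooled Cleave-'n-Seq trials supplied the data, with k3 capped at 0.0001 min^-1. In each, […] transcribed, DNA-blocked target RNA library and 1 nM active affinity-purified piRISC with one synthetic guide reacted in HEPES–potassium acetate buffer at 33 °C for 0–8 or 0–960 min, with or without 500 nM GTSF1 partner protein. Uncleaved targets were sequenced and normalised to depth and to weakly complementary targets. A burst-and-steady-state fit provided the pre-steady-state cleavage rate.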
# 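Note: 1 nM active piRISC with 0.1 nM target library at 33 °C single turnover.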
row,Sequence,pre-steady-state target cleavage rate
1,CUUAAGGAGACGAUCAACUGCGUUACCUAA,0.00112 ± 0.0054
2,CUUAAGGAGACCUUCUACUGGGUUACCAUAA,0.00192 ± 0.007
3,GAAUUCCUCUGGAUCUACUGCCAAUGGAUA [g11:g30:cont:t1A],0.000149 ± 0.033
4,CUUAAGGUCUGGAUCUUGAGGGUUACCUAA,0.00127 ± 0.0064
5,CUUAAGGAGACCUAGUACUGGGUUACCUGA,0.000347 ± 0.019
6,CUUAAGGAGAGGAUUACUGGGUUACCUAA,0.00014 ± 0.041
7,CUUAAGGAGACCUUCAACUGGGUUACCAAA,0.000245 ± 0.017
8,CUUAAGGUCUGGAUCUAGCUGGGUUACCUAA,0.000348 ± 0.021
9,CUAUUCCUCUGGAUCUACUGGGUUAGGAUA [g6:g28:cont:t1A],0.00334 ± 0.0046
10,CUUAAGGAGACCUACUACUGCGGUUACCUAA,0.00281 ± 0.0041
11,CUUAAGGAGACCUAGAUGAGGGUUACGAAA,0.000658 ± 0.011
12,CUUAAGGACAGGAUCUUCUGGGUUACCUAA,0.00624 ± 0.0089
13,CUUAAGGAGACCUAGUACUGGGUUACCUAC [g2:g15:cont:t1C],0.00116 ± 0.0044
14,CUUAAGGAGACCUACUUCUGGGUUACGUAA,0.00119 ± 0.0078
15,CUUAAGGAGUCCAUCUACUGGGUUACCUAA,0.00218 ± 0.0041
16,CUUAAGGAGACCUUCUACUGCGUAACCUAA,0.00108 ± 0.01
17,CUUAAGGACUGGAUACUACUGGGUUACCUAA,0.0183 ± 0.019
18,CUUAAGGAGACCUAGAUGUGGGUUAACUAA,0.000405 ± 0.016
19,CUUAAGGAGACGAUCUACUGUGGUUACCUAA,0.000248 ± 0.013
20,CUUAAGGAGACCUAGAUGACCCAUACCUAA,0.000279 ± 0.017
21,CUUAAGGAGACCUAGUGACUGGGUUACCUAA,0.00028 ± 0.029
22,CUUAAGGAGACCAUCUACUGGGUUAACUAA,0.00185 ± 0.0036
23,CUUAAGGAGACCAUCUACUGAGGUUACCUAA,0.00182 ± 0.0076

row,Sequence,pre-steady-state target cleavage rate
1,GAAUUCCUCUCGAUCUACUGGGUUACCUAA,0.642 ± 0.068
2,CUUAAGGAGACCAUCUACUGGGUUACCUCA,0.0011 ± 0.0092
3,GAAUUCCUCUGGAUCUACUGGGUACCUAA,0.00153 ± 0.0055
4,CUUAAGGAGAGGAUCGACUGGGUUACCUAA,0.00066 ± 0.029
5,CUUAAGGAGACCAUCUACGUGGGUUACCUAA,0.00127 ± 0.0071
6,CUUAAGGAGACCUUCUACUCCGUUACCUAA,0.00111 ± 0.0053
7,CUUAAGGAGACCUAGUACUGGGUUUCCAAA,0.000879 ± 0.0094
8,CUUAAGGAGACCAUCUACUGGGUUAGCCUAA,0.00318 ± 0.0037
9,CUUAAGGAGACCUACUACUGGGUACCUAA,0.00131 ± 0.0051
10,CUUAAGGAGACCUACUACUGGGUUUACCUAA,0.00188 ± 0.0049
11,CUUAAGGAGAGGAUAUACUGGGUUACCUAA,0.00311 ± 0.0034
12,CUUAAGGAGACGAAUCUACUGGGUUACCUAA,0.00192 ± 0.0029
13,CUAUUCCUCUGGAACUUCUGGGUUACCUAA,0.299 ± 0.036
14,CUUAAGGAGACGAUCUACUGGGAAUCCUAA,0.000972 ± 0.0065
15,CUUAAGGACUGGAUCUACUGGGUUUGGUAA,0.000413 ± 0.039
16,CUUAAGGAGUGGAUCUACUUGGGUUACCUAA,0.000138 ± 0.034
17,CUUAAGGAGACGAUCUAGUGGGUUACCUAA,0.000935 ± 0.0058
18,CUUAAGGAGACCUUCUACUGGCUAACCUAA,0.00122 ± 0.0083
19,CUUAAGGAGACCUAGUACUGGGUAUACCUAA,0.00246 ± 0.0045
20,CUUAAGGAGACCUAGAACUGGGUUUGCUAA,0.000537 ± 0.012
21,CUUAAGGAGACGAUCUACUGGGAUACCUAA,0.000343 ± 0.018
22,GAAUUCCUCUGGAUCAUGUGGGUUACCUAA,0.000852 ± 0.01
23,CUUAAGGAGAGGAUCUUCUGCGUUACCUAA,0.00197 ± 0.0042

row,Sequence,pre-steady-state target cleavage rate
1,CUUAAGGAGACGAUCUACUGGCAUACCUAA,0.00063 ± 0.012
2,CUUAAGGAGAGGAUCUUCUGGGUUACCUAA,0.002 ± 0.0058
3,CUUAAGGAGACCUACUGCUGGGUUACCUAA,0.00125 ± 0.0047
4,CAAUUCCUCUGGAUCUAGACCCAAUGGAUA [g14:g29:cont:t1A],< 0.0001
5,CAAUUCCUCUCGAUCUACUGCGUUACCUAA,0.907 ± 0.084
6,CAAUUCCUCUAGAUCUACUGGGUUACCUAA,0.807 ± 0.047
7,CUUAAGGAGUGGAUCUUCUGGCUUACCUAA,0.000408 ± 0.024
8,CUUAAGGACUGGAUCAACUGGGUUACCAAA,0.0143 ± 0.016
9,CUUAAGGAGUGCUACUACUGGGUUACCUAA,0.00411 ± 0.0074
10,CUUAAGGAGAGGAUCUACAGGGUUACCUAA,0.00312 ± 0.004
11,CUUAAGGAGACCUACUACUGGGCUACCUAA,0.000965 ± 0.015
12,CUUAAGGACUGGAACUACUGGGUUAGCUAA,0.0152 ± 0.017
13,CUUAAGGAGACCUUCUACUGGGUGACCUAA,0.00128 ± 0.0091
14,CUUAAGGAGUGGAUCAACUGGGAUACCUAA,0.00133 ± 0.0083
15,CUUAAGGAGAGGAUCUACACCGUUACCUAA,0.00184 ± 0.0027
16,CUUAAGGAGACCUACUACUGGGUUACCCUAA,0.0013 ± 0.0045
17,CUUAAGGAGACGAUCUACUGCGUUACCAAA,0.000872 ± 0.0034
18,CUUAAGGAGACCUACUUCUGGCUUACCUAA,0.000973 ± 0.007
19,CUUAAGGAGAGGAUCUACCUGGGUUACCUAA,0.000779 ± 0.011
20,CUUAAGGAGACGAUCUACUGGGUUACCUAG [g2:g19:cont:t1G],0.00343 ± 0.0043
21,CUUAAGGACUGGAUCUACUGGGUUAGGUAA,0.00227 ± 0.015
22,CUUAAGGAGUGGAUCUACUGGCAUACCUAA,0.000352 ± 0.024
23,CUUAAGGAGACGAUCUACUGGGUUUGCUAA,0.000231 ± 0.0081

# 26 successive records out of the list so far:
row,Sequence,pre-steady-state target cleavage rate
20,CUUAAGGAGACCUAGAACUGGGUUUGCUAA,0.000537 ± 0.012
21,CUUAAGGAGACGAUCUACUGGGAUACCUAA,0.000343 ± 0.018
22,GAAUUCCUCUGGAUCAUGUGGGUUACCUAA,0.000852 ± 0.01
23,CUUAAGGAGAGGAUCUUCUGCGUUACCUAA,0.00197 ± 0.0042
1,CUUAAGGAGACGAUCUACUGGCAUACCUAA,0.00063 ± 0.012
2,CUUAAGGAGAGGAUCUUCUGGGUUACCUAA,0.002 ± 0.0058
3,CUUAAGGAGACCUACUGCUGGGUUACCUAA,0.00125 ± 0.0047
4,CAAUUCCUCUGGAUCUAGACCCAAUGGAUA [g14:g29:cont:t1A],< 0.0001
5,CAAUUCCUCUCGAUCUACUGCGUUACCUAA,0.907 ± 0.084
6,CAAUUCCUCUAGAUCUACUGGGUUACCUAA,0.807 ± 0.047
7,CUUAAGGAGUGGAUCUUCUGGCUUACCUAA,0.000408 ± 0.024
8,CUUAAGGACUGGAUCAACUGGGUUACCAAA,0.0143 ± 0.016
9,CUUAAGGAGUGCUACUACUGGGUUACCUAA,0.00411 ± 0.0074
10,CUUAAGGAGAGGAUCUACAGGGUUACCUAA,0.00312 ± 0.004
11,CUUAAGGAGACCUACUACUGGGCUACCUAA,0.000965 ± 0.015
12,CUUAAGGACUGGAACUACUGGGUUAGCUAA,0.0152 ± 0.017
13,CUUAAGGAGACCUUCUACUGGGUGACCUAA,0.00128 ± 0.0091
14,CUUAAGGAGUGGAUCAACUGGGAUACCUAA,0.00133 ± 0.0083
15,CUUAAGGAGAGGAUCUACACCGUUACCUAA,0.00184 ± 0.0027
16,CUUAAGGAGACCUACUACUGGGUUACCCUAA,0.0013 ± 0.0045
17,CUUAAGGAGACGAUCUACUGCGUUACCAAA,0.000872 ± 0.0034
18,CUUAAGGAGACCUACUUCUGGCUUACCUAA,0.000973 ± 0.007
19,CUUAAGGAGAGGAUCUACCUGGGUUACCUAA,0.000779 ± 0.011
20,CUUAAGGAGACGAUCUACUGGGUUACCUAG [g2:g19:cont:t1G],0.00343 ± 0.0043
21,CUUAAGGACUGGAUCUACUGGGUUAGGUAA,0.00227 ± 0.015
22,CUUAAGGAGUGGAUCUACUGGCAUACCUAA,0.000352 ± 0.024

# Further entries follow:

row,Sequence,pre-steady-state target cleavage rate
1,CUUAAGGAGACGAUCUACUUGGUUACCUAA,0.0013 ± 0.0043
2,CUUAAGGAGACCUUCUACUGGGUUAGCCUAA,0.00178 ± 0.0066
3,CUUAAGGAGAGGAUCACUGGGUUACCUAA,0.00026 ± 0.02
4,CUUAAGGACUGGUUCUUCUGGGUUACCUAA,0.00506 ± 0.011
5,CUUAAGGAGACCAUCUUCUGGGAUACCUAA,0.0018 ± 0.006
6,CAAUUCCUCUGGAUCUCUGGGUUACCUAA,0.00445 ± 0.0046
7,CUUAAGGAGUGGAUCUACUGGGAUAGCUAA,0.000277 ± 0.02
8,CUUAAGGACUGCAUCUACUGGGUUAGCUAA,0.00126 ± 0.023
9,CUUAAGGAGACCUAGAUGUGGGUUACUAA,0.00016 ± 0.021
10,CUUAAGGACUCCAUCUACUGGGUUACCUAA,0.00288 ± 0.0044
11,CUUAACCUCUGGAUCUACUCCCUUACCUAA,0.00105 ± 0.013
12,CUUAAGCUGUGGAUCUACUGGGUUUCCUAA,0.0403 ± 0.019
13,CAAUUCGUCUGGAUCUACUGCGUUACCUAA,0.376 ± 0.044
14,CUUAAGGAGACCUAGUACUGGGUUACCGAA,0.000539 ± 0.0087
15,CUUAAGGAGUGGAACUACUGGGUUAGCUAA,0.00445 ± 0.0092
16,CUUUUCCUCUGGAUCUACUGGAGUUACCUAA,0.00361 ± 0.0042
17,CUUAAGGAGACCAUCUACUGGGAUACCUAA,0.00087 ± 0.0065
18,CUUAAGGAGACGUUCUACAGGGUUACCUAA,0.00106 ± 0.0083
19,CUUAUCCUCUGGAUCUACUGCGUUACCUAA,0.498 ± 0.055
20,CUUAAGGAGACCAUCUACUCGGUAACCUAA,0.000485 ± 0.0092
21,GAAUUCCUCUCGUUCUACUGGGUUACCUAA,0.793 ± 0.058
